Results: PubChem BioAssay AID651640 (Broad Institute, 2012)
The campaign covered roughly 350,000 compounds. About 6,000 (1.7%) were called active. This list was built around the results that the source calls inconclusive (neither active nor inactive); the mix of calls is not that of the screen. Cut-off read from the data, not from the text of the source: active = CPE inhibition above about 20% (passing the limit was not always enough); inconclusive = no clear call, values can overlap the other calls; tested in BHK-21 cells.

Experiment: protection of cells from dengue 2 killing – plate reader, single concentration, primary screen (AID 651640);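 note: 0% = median of neutral control wells and 100% = median of positive control wells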
Conditions: DENV2-infected cells, cytopathic effect rescue, at 9.99 µM, stronger effect = higher value

Question: With `C[C@H]1CN([C@@H](C)CO)C(=O)c2cccc(NC(=O)Nc3cccc4ccccc34)c2O[C@H]1CN(C)C(=O)Nc1ccc(C(F)(F)F)cc1` as the molecule, how does the CPE inhibition read?
Answer: Its CPE inhibition is active: 31.9%.

Question: With `CN1c2ccc(-c3ccccc3)cc2[C@@H]2[C@@H](CCN2S(=O)(=O)c2ccccc2F)[C@@H]1CO` as the molecule, how does the CPE inhibition read?
Answer: The CPE inhibition was active: 68.2%.

Question: With `O=C(OCc1ccc([N+](=O)[O-])cc1)c1cc([N+](=O)[O-])ccc1N1CCOCC1` as the molecule, how does the CPE inhibition read?
Answer: The CPE inhibition was inconclusive: 25.7%.

Question: Which CPE inhibition does the source give for `O=C(N[C@H]1C=C[C@H](CC(=O)N2CCOCC2)O[C@H]1CO)c1cccc(F)c1` here?
Answer: Its CPE inhibition is inactive: -8.72%.

Question: Which CPE inhibition does the source give for `CCCCNc1c(-c2cccc(SC3CCCCC3)c2)nc2ccc(Cl)cn12` here?
Answer: The CPE inhibition was inconclusive: 29.1%.

Question: Which CPE inhibition does the source give for `C[C@H](CO)N1C[C@H](C)[C@@H](CN(C)S(=O)(=O)c2cccs2)Oc2ccc(NS(=O)(=O)c3cn(C)cn3)cc2CC1=O` here?
Answer: The CPE inhibition was inactive: 1.75%.

Question: For `CCCOc1cccc(C(=O)NCCCNC(=O)c2cccnc2)c1`, which CPE inhibition is on record?
Answer: The CPE inhibition was inconclusive: 20.4%.

Question: For `CCOc1cc(/C=N/NC(=O)CSc2nncn2C)ccc1OCc1ccccc1`, which CPE inhibition is on record?
Answer: The CPE inhibition was inconclusive: 31.1%.

Question: For `CC(C)OC1=CC(=O)OC(c2cccc(Cl)c2)C1` (stereo not given), which CPE inhibition is on record?
Answer: The CPE inhibition was active: 30.9%.

Question: For `COc1cccc(-c2c(-c3cc(OC)cc(OC)c3)n(C)c3ccc(Br)cc23)c1`, which CPE inhibition is on record?
Answer: The CPE inhibition was inactive: 5.83%.

Question: For `CCCCC#Cc1ccccc1COC[B-](F)(F)F`, which CPE inhibition is on record?
Answer: Its CPE inhibition is inactive: -4.36%.

Question: Which CPE inhibition does the source give for `O=C(N[C@@H]1CC[C@H](CCNS(=O)(=O)Cc2ccccc2)O[C@@H]1CO)c1ccc2c(c1)OCO2` here?
Answer: The CPE inhibition was active: 21.7%.

Question: Which CPE inhibition does the source give for `Cn1c(=O)c2c(nc3n2CC(O)CN3c2ccc(O)cc2)n(C)c1=O` (stereo not given) here?
Answer: The CPE inhibition was active: 39%.

Question: With `CN(C)CC(=O)Nc1ccc2c(c1)[C@H]1C[C@H](CC(=O)NCCc3ccccc3)O[C@@H](CO)[C@H]1O2` as the molecule, how does the CPE inhibition read?
Answer: The CPE inhibition was inactive: 0.523%.

Question: Which CPE inhibition does the source give for `CCc1cccc(CC)c1NC(=S)N1CCn2cccc2C1c1ccncc1` (stereo not given) here?
Answer: The CPE inhibition was inactive: -0.35%.

Question: Which CPE inhibition does the source give for `COc1ccc(OC)c(NC(=O)c2cnc3n(c2=O)CCS3)c1` here?
Answer: The CPE inhibition was inconclusive: 21%.

Question: Which CPE inhibition does the source give for `CCCNC(=O)N1C[C@@H](C)[C@H](OC)CN(C)C(=O)c2cc(NS(=O)(=O)CC(F)(F)F)ccc2OC[C@@H]1C` here?
Answer: Its CPE inhibition is active: 60.2%.

Question: For `CCn1cc(S(=O)(=O)c2ccc(C)cc2)c(=O)c2cc(F)c(N3CCN(C)CC3)cc21`, which CPE inhibition is on record?
Answer: Its CPE inhibition is inconclusive: 29.5%.

Question: For `COc1ccc(CN(C)C[C@@H]2Oc3ccc(NS(=O)(=O)c4c(C)noc4C)cc3CC(=O)N([C@@H](C)CO)C[C@@H]2C)cc1`, which CPE inhibition is on record?
Answer: The CPE inhibition was inconclusive: 20%.

Question: Which CPE inhibition does the source give for `CC(C)NC(=O)N(C)C[C@@H]1OCCCC[C@@H](C)Oc2ccc(NC(=O)c3ccncc3)cc2C(=O)N([C@@H](C)CO)C[C@H]1C` here?
Answer: The CPE inhibition was inconclusive: 57%.
